Common to all, as to test: co-IP
For experiment [1], the target named is YidC of Mycobacterium tuberculosis (Rv3921c) (Mycobacterium tuberculosis) (UniProt P9WIT5).
For experiment [2], the target named is Rv0248c-FLAG (putative succinate dehydrogenase subunit A1) (Mycobacterium tuberculosis) (UniProt O53670).
Experiment [3] deals with cMyc-Rv0247c (putative succinate dehydrogenase subunit B1) (Mycobacterium tuberculosis) (UniProt O53669).
For experiment [4], the target named is QcrA-FLAG (ubiquinol-cytochrome C reductase subunit QcrA, Rv2195) (Mycobacterium tuberculosis) (UniProt P9WH23).

Amino acid sequences for entries named in this document (tags omitted).
UniProt P9WIT5: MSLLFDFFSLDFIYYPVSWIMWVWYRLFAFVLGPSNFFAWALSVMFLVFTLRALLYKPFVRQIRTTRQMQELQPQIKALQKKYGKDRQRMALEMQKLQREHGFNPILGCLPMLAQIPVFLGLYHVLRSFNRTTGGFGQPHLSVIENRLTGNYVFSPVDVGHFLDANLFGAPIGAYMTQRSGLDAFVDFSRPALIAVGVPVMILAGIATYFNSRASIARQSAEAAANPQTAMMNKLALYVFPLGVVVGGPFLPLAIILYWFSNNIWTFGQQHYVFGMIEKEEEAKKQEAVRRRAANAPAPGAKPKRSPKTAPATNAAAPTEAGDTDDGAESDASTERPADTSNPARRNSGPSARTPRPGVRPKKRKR
UniProt O53670: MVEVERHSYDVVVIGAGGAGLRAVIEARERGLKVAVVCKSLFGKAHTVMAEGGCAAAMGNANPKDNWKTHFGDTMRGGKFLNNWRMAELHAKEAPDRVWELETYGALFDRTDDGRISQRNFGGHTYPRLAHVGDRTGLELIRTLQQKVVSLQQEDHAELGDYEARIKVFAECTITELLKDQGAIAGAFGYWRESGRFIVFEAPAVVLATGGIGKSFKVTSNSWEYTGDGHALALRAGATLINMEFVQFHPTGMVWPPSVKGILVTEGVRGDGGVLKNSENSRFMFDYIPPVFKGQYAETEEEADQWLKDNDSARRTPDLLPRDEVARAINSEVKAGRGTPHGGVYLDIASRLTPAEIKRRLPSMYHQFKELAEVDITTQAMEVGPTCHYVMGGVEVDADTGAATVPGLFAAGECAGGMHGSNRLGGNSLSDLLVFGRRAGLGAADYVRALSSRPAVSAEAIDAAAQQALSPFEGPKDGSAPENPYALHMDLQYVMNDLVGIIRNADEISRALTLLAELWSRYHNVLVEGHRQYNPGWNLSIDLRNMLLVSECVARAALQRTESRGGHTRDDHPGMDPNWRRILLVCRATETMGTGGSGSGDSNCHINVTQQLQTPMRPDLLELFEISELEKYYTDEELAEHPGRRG
UniProt O53669: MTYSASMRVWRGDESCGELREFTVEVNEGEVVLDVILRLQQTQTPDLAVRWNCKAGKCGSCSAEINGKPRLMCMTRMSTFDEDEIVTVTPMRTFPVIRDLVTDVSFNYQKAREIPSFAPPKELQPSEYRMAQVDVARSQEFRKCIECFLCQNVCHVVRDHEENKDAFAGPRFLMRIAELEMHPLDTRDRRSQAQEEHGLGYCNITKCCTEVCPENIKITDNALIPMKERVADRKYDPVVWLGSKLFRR
UniProt P9WH23: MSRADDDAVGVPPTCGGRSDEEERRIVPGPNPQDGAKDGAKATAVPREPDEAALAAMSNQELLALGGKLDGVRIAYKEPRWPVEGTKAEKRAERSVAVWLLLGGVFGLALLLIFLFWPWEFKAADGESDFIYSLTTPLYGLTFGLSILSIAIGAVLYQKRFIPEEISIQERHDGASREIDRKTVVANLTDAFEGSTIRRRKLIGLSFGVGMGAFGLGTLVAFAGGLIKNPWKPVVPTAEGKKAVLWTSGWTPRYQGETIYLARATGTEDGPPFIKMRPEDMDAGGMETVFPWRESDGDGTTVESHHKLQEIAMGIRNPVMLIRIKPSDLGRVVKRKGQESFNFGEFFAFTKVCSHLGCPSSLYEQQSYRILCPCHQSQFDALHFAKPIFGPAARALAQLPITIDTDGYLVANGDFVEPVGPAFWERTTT

Results are given in words; binding and its absence hold for the method and conditions named. Binding seen in cells or lysates may run through a third protein. Some entries that bind do so weakly or less than the wild type.

Take “cMyc-Rv0247c (putative succinate dehydrogenase subunit B1) (from UniProt O53669 1-248)”: in experiment [1], the binding entry is given as “binds”. As to “YidC of Mycobacterium tuberculosis (Rv3921c) (from UniProt P9WIT5 1-366)”, the binding entry in experiment [2], in experiment [3] and in experiment [4] was “binds” throughout.

In the case of “QcrA-FLAG (ubiquinol-cytochrome C reductase subunit QcrA, Rv2195) (from UniProt P9WH23 1-429)”, the binding entry in experiment [1] is listed as “binds”. Still for that read-out and setting: the value for “Rv0248c-FLAG (putative succinate dehydrogenase subunit A1) (from UniProt O53670 1-646)” was “binds”.
